The values below come from US7737120B2 (Aicuris GmbH & Co. KG, priority 2004, dated 2010).

This data set can be described thus: peptide synthesis. As to conditions: late stage modification step, trifluoroacetate.

Consider “D-Leu-Leu-Ala(3-cyclohexyl)-[(3R)-Leu(3-OH)]-Leu-D-Arg-Ile-aThr-Gly-[(3S)-3-Asn(3-OH)]-Ser-trifluoroacetate”, for which the step yield is given as 20% of theory.
As for “D-Leu-Leu-Phe-[(3R)-Leu(3-OH)]-Leu-D-Arg-Ile-aThr-Gly-[(3S)-3-Asn(3-OH)]-Ser-trifluor-oacetate”, the step yield is listed as 31% of theory (run 1), 33% of theory (run 2) and 27% of theory (run 3).
